# Results as given in publication PMC11062894, “Protein-based bandpass filters for controlling cellular signaling with chemical inputs” (Nature Chemical Biology, 2023).
# By UniProt entry, the sequences of proteins in these tests, tags left out.
# UniProt P10415, whole entry: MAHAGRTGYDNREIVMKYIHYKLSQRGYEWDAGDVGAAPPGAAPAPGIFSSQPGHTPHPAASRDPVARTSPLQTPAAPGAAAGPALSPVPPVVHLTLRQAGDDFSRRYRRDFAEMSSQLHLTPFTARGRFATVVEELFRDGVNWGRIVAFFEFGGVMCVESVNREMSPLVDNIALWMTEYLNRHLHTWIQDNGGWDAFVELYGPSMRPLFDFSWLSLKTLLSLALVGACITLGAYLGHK
# Values joined by “and” are separate entries in the source; they are usually repeats but may differ in a detail not shown here. Equal entries are not always repeated. Further values from the same series stand in other lists.
# Molecular target: GEMS with the dual-drug-controlled (A-1155463, venetoclax) switch (Bcl2 and BclXL–LD3) in HEK293T cells (Homo sapiens, UniProt P10415)
# Test: GEMS SEAP reporter assay, dual-drug-controlled (A-1155463, venetoclax) switch
# Type: cell-based
# Details: Figure 2c, ON-phase
# Excerpt: In the first step, we sought to construct a dual-drug-controlled switch to test whether the ON and OFF switching processes can be combined in our receptor architecture. We used Bcl2 and BclXL as the orthogonal drug receptors, which interact with the LD3 protein and respond to their own specific inhibitors. In such a setting, the dual-drug-controlled switch will turn ON in response to one drug and OFF in response to the other, thus mimicking bandpass filtering behavior (Supplementary Fig. 1d). […] To test the switch behavior, we employed the generalizable extracellular molecule sensor (GEMS) platform, which senses extracellular molecules and thus regulates cell surface signaling pathways (Fig. 2a). This receptor platform is based on a mutated EpoR extracellular and transmembrane domain fused to an IL-6RB intracellular domain. Dimerization of EpoR extracellular domains is controlled by N-terminally fused inducible dimerization domains, which drive IL-6RB activation and STAT3 signaling. The Bcl2 and BclXL–LD3 complexes were fused to the extracellular EpoR domains. […] The dimerization of Bcl2 and LD3 causes EpoR extracellular domain dimerization and triggers JAK/STAT3 signaling. Active STAT3 drives the expression of a reporter protein (secreted alkaline phosphatase (SEAP)) controlled by a STAT3-dependent promoter.
# HEK293T cells were seeded in a 96-well plate 24 h before transfection. The transfection mix in each well consisted of 3 ng of constitutive human CMV promoter driven mammalian STAT3 expression vector (PhCMV-STAT3-pA), 30 ng of STAT3-induced reporter expression (OStat3-PhCMVmin-SEAP-pA) and 50 ng of expression vectors for each GEMS receptor chain (PSV40-IgK-(drughigh receptor)-EpoRm-IL-6RBm-pA and PSV40-IgK-(druglow receptor-GGGGSX3-LD3)-EpoRm-IL-6RBm-pA). For the specific drughigh receptor and druglow receptor used in the different cellular assays, they are indicated as wild type or with mutations. Then, plasmid DNA was mixed with 50 μl opti-MEM (Thermo Fisher) and 600 ng of polyethyleneimine (Polysciences, catalog no. 24765-1). For drug treatment experiments, drugs were added 12 h post-transfection and incubated with cells for 24 h before the SEAP reporter detection assay.
# SEAP activity (U l^−1) in cell culture supernatants was quantified by kinetic measurements at 405 nm (1 minute per measurement for 30 cycles) of absorbance increase due to phosphatase-mediated hydrolysis of para-nitrophenyl phosphate (pNPP).
# Binding affinities of SPR drug competition assays were calculated using three-parameter nonlinear regression in GraphPad Prism (v.8.3.0). Representative data of cell assays are presented as individual values and mean values (bars). n = 3 refers to biological replicates. All IC50 or EC50 values of cell assays reported were calculated using four-parameter nonlinear regression ± s.d. Bandpass features of cutoff concentrations and Bandwidth90% were estimated based on the curve fitted using bell-shaped curve nonlinear regression in GraphPad Prism (v.8.3.0).
smiles,measurement,setting,value
CN(C)CC#Cc1ccc(OCCCc2sc(N3CCc4cccc(C(=O)Nc5nc6ccccc6s5)c4C3)nc2C(=O)O)c(F)c1 [A-1155463],SEAP (U/L),"Independent repeat, A-1155463 0.001 nM",8.652 U/L and 8.318 U/L and 8.29 U/L
same,SEAP (U/L),"Independent repeat, A-1155463 0.01 nM",9.057 U/L and 8.001 U/L and 10.9754 U/L
same,SEAP (U/L),"Independent repeat, A-1155463 0.1 nM",14.1845 U/L and 11.1764 U/L and 14.2499 U/L
same,SEAP (U/L),"Independent repeat, A-1155463 316 nM",456.921 U/L and 405.388 U/L and 502.279 U/L
same,SEAP (U/L),"Independent repeat, A-1155463 1000 nM",394.23 U/L and 382.851 U/L and 392.812 U/L
same,SEAP (U/L),"Representative, A-1155463 0.001 nM",5.8952 U/L and 7.209 U/L and 6.83 U/L
same,SEAP (U/L),"Representative, A-1155463 0.01 nM",7.843 U/L and 6.762 U/L and 8.087 U/L
same,SEAP (U/L),"Representative, A-1155463 0.1 nM",9.616 U/L and 8.189 U/L and 10.3625 U/L
same,SEAP (U/L),"Representative, A-1155463 316 nM",87.4799 U/L and 90.9245 U/L
same,SEAP (U/L),"Representative, A-1155463 1000 nM",61.3538 U/L and 85.7682 U/L and 92.3267 U/L
